Source: the supplement of paper PMC9578143, “Small-Molecule Ebselen Binds to YTHDF Proteins Interfering with the Recognition of N^6-Methyladenosine-Modified RNAs” (ACS Pharmacology & Translational Science, 2022)
The other results are listed elsewhere or left out. Baselines shift from plate to plate; read single values as rough.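 Hits were defined as a z-score below −3.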

What follows are molecules tested against T1, YTHDF1 YTH domain (aa 365-554) (UniProt Q9BYJ9) (assay: tryptophan fluorescence intensity z-score (mean); higher = higher fluorescence, less quenching (negative = binding / quenching)). Details: 10 µM.
T1 sequence (whole entry): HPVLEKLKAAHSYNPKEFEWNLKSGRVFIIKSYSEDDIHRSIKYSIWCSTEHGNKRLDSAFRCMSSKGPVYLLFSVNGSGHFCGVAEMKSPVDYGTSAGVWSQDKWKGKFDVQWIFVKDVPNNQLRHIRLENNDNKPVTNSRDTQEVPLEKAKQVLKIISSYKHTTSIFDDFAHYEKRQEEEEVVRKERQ

Row | SMILES | tryptophan fluorescence intensity z-score
1 | CC(=O)[C@@]1(O)CC[C@H]2[C@@H]3C=C(Cl)C4=CC(=O)[C@@H]5C[C@@H]5[C@]4(C)[C@H]3CC[C@@]21C (plate: M 23-24) | inactive: 0.339
2 | Nc1[nH]cnc2ncnc1-2 (plate: M 5-6) | inactive: 0.228
3 | NCCc1c[nH]cn1 (plate: M 3-4) | inactive: -0.215
4 | OC(Cn1cncn1)(Cn1cncn1)c1ccc(F)cc1F (plate: M 13-14) | inactive: 0.202
5 | Cc1cn[nH]c1 (plate: M 11-12) | inactive: -0.567
6 | COc1c(-c2coc3cc4c(cc3c2=O)CC(O)C(C)(C)O4)ccc2c1C=CC(C)(C)O2 (stereo unspecified) (plate: M 15-16) | inactive: 0.00314
7 | C=CC(C)(O)CCC=C(C)CCC=C(C)C (mixture of isomers) (plate: M 19-20) | inactive: 0.344
8 | CCCc1ncc(C[n+]2ccccc2C)c(N)n1 (plate: M 1-2) | inactive: 0.237
9 | COc1ccc2c(C)cc(=O)oc2c1 (plate: M 17-18) | inactive: 0.449
10 | O=C1OC(c2ccc(O)cc2)(c2ccc(O)cc2)c2ccccc21 (plate: M 5-6) | inactive: 0.137
11 | COc1cc(OC)c2c(=O)cc(-c3ccccc3)oc2c1 (plate: M 17-18) | inactive: 0.136
12 | COC(=O)C[C@H]1C(C)(C)[C@@H](O)[C@@H]2CC3=C4C=C(OC)O[C@@H](c5ccoc5)[C@]4(C)CCC3[C@@]1(C)C2=O (stereo partly drawn) [3-DEOXO-3beta-HYDROXYMEXICANOLIDE16-ENOLETHER] (plate: M 13-14) | inactive: 0.659
13 | CC(C(=O)O)c1cccc(Oc2ccccc2)c1 (stereo unspecified) (plate: M 7-8) | inactive: 0.532
14 | O=C(O)CN(CCN(CC(=O)O)CC(=O)O)CC(=O)O.[Na+].[Na+].[Na+] (plate: M 3-4) | inactive: 0.0918
15 | CCn1cc(C(=O)O)c(=O)c2cc(F)c(N3CCNCC3)nc21 (plate: M 7-8) | inactive: 0.0732
16 | OC[C@@H](O)[C@@H](O)[C@H](O)[C@H](O)CO (plate: M 1-2) | inactive: 0.448
17 | C=CCc1ccc(O)c(OC)c1 (plate: M 3-4) | inactive: 0.469
18 | COc1cc(O)c(C(=O)/C=C/c2ccc(OC)c(O)c2)c(OC)c1 (plate: M 19-20) | inactive: 0.0931
19 | CC(CCC(=O)O)[C@H]1CCC2C3C[C@H](O)[C@@H]4C[C@H](O)CC[C@]4(C)C3CC[C@@]21C (stereo partly drawn) [alpha-HYDROXYDEOXYCHOLICACID] (plate: M 15-16) | inactive: 0.214
20 | C1N2CN3CN1CN(C2)C3 (plate: M 3-4) | inactive: 0.407
21 | O=C(O)C1=C[C@@H](O)[C@@H](O)[C@H](O)C1 (plate: M 19-20) | inactive: 0.244
22 | C=C(C)[C@@H]1CC[C@]2(C(=O)O)CC[C@]3(C)[C@H](CC[C@@H]4[C@@]5(C)CC[C@H](O)C(C)(C)[C@@H]5CC[C@]43C)[C@@H]12 (plate: M 19-20) | inactive: 0.558

As entered above.
tryptophan fluorescence intensity z-score with COc1cc(OC)c2c(=O)cc(-c3ccccc3)oc2c1 (plate: M 17-18) is entered as inactive: 0.136
tryptophan fluorescence intensity z-score with C1N2CN3CN1CN(C2)C3 (plate: M 3-4) is entered as inactive: 0.407
tryptophan fluorescence intensity z-score with CCn1cc(C(=O)O)c(=O)c2cc(F)c(N3CCNCC3)nc21 (plate: M 7-8) is entered as inactive: 0.0732

As a working copy, part of the list above:
Row | SMILES | tryptophan fluorescence intensity z-score
9 | COc1ccc2c(C)cc(=O)oc2c1 (plate: M 17-18) | inactive: 0.449
10 | O=C1OC(c2ccc(O)cc2)(c2ccc(O)cc2)c2ccccc21 (plate: M 5-6) | inactive: 0.137

Further records

Row | SMILES | tryptophan fluorescence intensity z-score
23 | Oc1ccc2c(c1)OC[C@]1(O)Cc3cc(O)c(O)cc3[C@H]21 (plate: M 15-16) | inactive: 0.653
24 | c1ccc2c(c1)CCCC2C1=NCCN1 (stereo unspecified) (plate: M 5-6) | inactive: 0.0244
25 | CS(=O)(=O)c1ccc([C@@H](O)[C@@H](CF)NC(=O)C(Cl)Cl)cc1 (plate: M 11-12) | inactive: -0.387
26 | CCN(CC)CCCC(C)Nc1ccnc2cc(Cl)ccc12 (stereo unspecified) (plate: M 1-2) | inactive: -0.506
27 | O=c1cc(-c2ccc(O)cc2)oc2cc(O[C@@H]3O[C@H](CO)[C@@H](O)[C@H](O)[C@H]3O[C@@H]3OC[C@](O)(CO)[C@H]3O)cc(O)c12 (plate: M 17-18) | inactive: 0.101
28 | C[N+](C)(C)CCOP(=O)(O)OP(=O)([O-])OC[C@H]1O[C@@H](n2ccc(N)nc2=O)[C@H](O)[C@@H]1O (plate: M 9-10) | inactive: -0.428
29 | Nc1ccc(S(=O)(=O)NC(=O)c2ccccc2)cc1 (plate: M 5-6) | inactive: 0.188
30 | CC(C)c1nc(N(C)S(C)(=O)=O)nc(-c2ccc(F)cc2)c1/C=C/[C@@H](O)C[C@@H](O)CC(=O)O (plate: M 9-10) | inactive: -0.191
31 | C=C(CC)C(=O)c1ccc(OCC(=O)O)c(Cl)c1Cl (plate: M 3-4) | inactive: 0.116
32 | CCCCCC1C(=O)CCC1CC(=O)OC (stereo unspecified) (plate: M 21-22) | inactive: 0.516
33 | COC(=O)[C@H](c1ccccc1Cl)N1CCc2sccc2C1 (plate: M 9-10) | inactive: -0.305
34 | C[C@]12CCC(=O)C=C1CC[C@@H]1[C@@H]2C(=O)C[C@@]2(C)[C@H]1CC[C@]2(O)C(=O)CO (plate: M 11-12) | inactive: -0.604
35 | CN(C)[C@@H]1C(O)=C(C(N)=O)C(=O)[C@@]2(O)C(O)=C3C(=O)c4c(O)cccc4[C@@](C)(O)[C@H]3C[C@@H]12 (plate: M 5-6) | inactive: -0.0699
36 | COc1ccc(-c2coc3cc(O)ccc3c2=O)cc1 (plate: M 15-16) | inactive: 0.245
37 | CCC(=O)O[C@H]1CC[C@H]2[C@@H]3CCc4cc(O)ccc4[C@H]3CC[C@]12C (plate: M 7-8) | inactive: -0.814
38 | CCOC(=O)N1CCC(=C2c3ccc(Cl)cc3CCc3cccnc32)CC1 (plate: M 9-10) | inactive: -0.365
39 | Nc1nc(F)nc2c1ncn2[C@@H]1O[C@H](COP(=O)(O)O)[C@@H](O)[C@@H]1O (plate: M 11-12) | inactive: -0.731
40 | NC(=O)c1ccccc1O (plate: M 5-6) | inactive: -0.137
41 | CC1=C(/C=C/C(C)=C/C=C/C(C)=C/C=C/C=C(C)/C=C/C=C(C)/C=C/C2=C(C)CCCC2(C)C)C(C)(C)CCC1 [beta-CAROTENE] (plate: M 1-2) | inactive: 0.413
42 | CC[C@H]1OC(=O)[C@H](C)[C@@H](O[C@H]2C[C@@](C)(OC)[C@@H](O)[C@H](C)O2)[C@H](C)[C@@H](O[C@@H]2O[C@H](C)C[C@H](N(C)C)[C@H]2O)[C@](C)(O)C[C@@H](C)C(=O)[C@H](C)[C@@H](O)[C@]1(C)O (plate: M 3-4) | inactive: -0.109
43 | CC(C)[C@@H](C)/C=C/[C@@H](C)[C@H]1CC[C@H]2C3=CC=C4C[C@@H](O)CC[C@]4(C)[C@H]3CC[C@]12C (plate: M 15-16) | inactive: 0.315
44 | O=C1c2ccccc2C(=O)C1c1ccccc1 (plate: M 3-4) | inactive: 0.0414

Row | SMILES | tryptophan fluorescence intensity z-score
45 | Clc1ccc2c(c1)C(N1CCNCC1)=Nc1ccccc1O2 (plate: M 11-12) | inactive: -0.154
46 | O=C(O)CCc1nc(-c2ccccc2)c(-c2ccccc2)o1 (plate: M 9-10) | inactive: 0.423
47 | c1ccc(CC2=NCCN2)cc1 (plate: M 5-6) | inactive: -0.0294
48 | NCCCCC(=O)O (plate: M 23-24) | inactive: 0.625
49 | CC(C)(Oc1ccc(CCNC(=O)c2ccc(Cl)cc2)cc1)C(=O)O (plate: M 7-8) | inactive: 0.373
50 | OCCN1CCN(CCCN2c3ccccc3Sc3ccc(C(F)(F)F)cc32)CC1 (plate: M 7-8) | inactive: -0.224
51 | CC(=O)OCC(=O)[C@H]1CC[C@H]2[C@@H]3CC=C4C[C@@H](O)CC[C@]4(C)[C@H]3CC[C@]12C (plate: M 19-20) | inactive: -0.252
52 | CC1=CC(=O)[C@H]2C(C)(C)CCC[C@]2(C)[C@@]1(O)CCc1ccoc1 (plate: M 15-16) | inactive: 0.283
53 | O=C(O)c1ccccc1-c1c2cc(I)c(=O)c(I)c-2oc2c(I)c(O)c(I)cc12 (plate: M 13-14) | inactive: -1.2
54 | CCc1ccc(CCOc2ccc(CC3SC(=O)NC3=O)cc2)nc1 (stereo unspecified) (plate: M 9-10) | inactive: -0.296
55 | Cc1ccc(N(CC2=NCCN2)c2cccc(O)c2)cc1 (plate: M 5-6) | inactive: -0.543
56 | C[C@@H]1CC[C@H]2C(C)(C)[C@H]3C[C@@]12CC[C@@]3(C)O (plate: M 17-18) | inactive: 0.44
57 | Cc1c(Cl)cccc1Nc1ccccc1C(=O)O (plate: M 21-22) | inactive: -0.274
58 | CCCSc1ccc2[nH]c(NC(=O)OC)nc2c1 (plate: M 9-10) | inactive: -0.124
59 | COc1cc(C)c(C(=O)O)c(O)c1 (plate: M 15-16) | inactive: 0.88
60 | CO[C@H]1/C=C/O[C@@]2(C)Oc3c(C)c(O)c4c(O)c(c(/C=N/N5CCN(C)CC5)c(O)c4c3C2=O)NC(=O)/C(C)=C\C=C\[C@H](C)[C@H](O)[C@@H](C)[C@@H](O)[C@@H](C)[C@H](OC(C)=O)[C@@H]1C (plate: M 5-6) | inactive: -0.665
61 | N[C@@H](CSCSC[C@H](N)C(=O)O)C(=O)O (plate: M 17-18) | inactive: 0.392
62 | CN/C(=N\CCSCc1nc[nH]c1C)NC#N (plate: M 5-6) | inactive: 0.0214
63 | C/C(=C\C(=O)OCCCCCCCCC(=O)O)C[C@@H]1OC[C@H](C[C@@H]2O[C@H]2[C@@H](C)[C@H](C)O)[C@@H](O)[C@H]1O (plate: M 11-12) | inactive: -0.881
64 | O=C(O)c1cc(/N=N/c2ccc(S(=O)(=O)Nc3ccccn3)cc2)ccc1O (plate: M 5-6) | inactive: -0.396
65 | CC(=O)O[C@@H]1C=C[C@]2(C)C(C[C@@H](OC(C)=O)[C@]3(C)C4=CC(=O)O[C@H](c5ccoc5)[C@@]4(C)CCC23)C1(C)C (stereo partly specified) (plate: M 13-14) | inactive: 0.17
66 | CCOc1ccc2nc(S(N)(=O)=O)sc2c1 (plate: M 11-12) | inactive: 0.266
